Among the data in PubChem BioAssay AID588453 (National Center for Advancing Translational Sciences (NCATS), 2011) are activity change, negative = inhibition values, retold here.

Chains of the proteins cited; added tags and fusions are not shown.
UniProt O89049, whole entry, looked up: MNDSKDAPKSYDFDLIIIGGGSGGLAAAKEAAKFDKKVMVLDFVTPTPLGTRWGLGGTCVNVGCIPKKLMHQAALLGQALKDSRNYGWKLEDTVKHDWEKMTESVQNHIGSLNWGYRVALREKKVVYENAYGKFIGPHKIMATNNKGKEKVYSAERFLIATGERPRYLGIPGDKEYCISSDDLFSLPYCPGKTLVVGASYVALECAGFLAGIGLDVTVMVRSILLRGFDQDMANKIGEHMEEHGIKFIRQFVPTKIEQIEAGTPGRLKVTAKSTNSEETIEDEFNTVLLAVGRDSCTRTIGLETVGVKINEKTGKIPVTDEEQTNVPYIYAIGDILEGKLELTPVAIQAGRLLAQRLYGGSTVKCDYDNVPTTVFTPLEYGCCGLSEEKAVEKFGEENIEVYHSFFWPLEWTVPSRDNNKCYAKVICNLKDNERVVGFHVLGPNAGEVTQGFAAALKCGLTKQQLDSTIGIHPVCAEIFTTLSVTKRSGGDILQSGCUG

Several values for one entry are separate records, joined by “and”; a condition that tells them apart may be missing. Identical values can stand only once. Shown are results outside the selection of hits, which stands elsewhere. Inconclusive results are not listed. Activity calls are given as the source filed them. Calls come from the whole dose curve; as a rule, active = well fitted inhibition curve with a large enough effect; inconclusive = small, poorly fitted or top-dose-only effect; inactive = no such curve, though single readings can be large or run the other way.
% is set by controls: 0 for no effect and ±100 for the full control effect.

The target of this experiment is Thioredoxin reductase 1, cytoplasmic (Rattus norvegicus) (UniProt O89049). The experiment can be described thus: qHTS Assay for Inhibitors of Mammalian Selenoprotein Thioredoxin Reductase 1 (TrxR1): qHTS. Note: nearly all actives have a fitted effect of over 65% in size. The note with it: recombinant rTrxR1, NADPH fluorescence consumption, selenite substrate; at 57.1 µM (top of the series) unless noted. The text has this:
The selenoprotein thioredoxin reductase (TrxR; EC 1.8.1.9) is a FAD containing homodimeric pyridine nucleotide-disulfide oxidoreductase with many cellular roles. Together with NADPH and its prime substrate thioredoxin (Trx), the enzyme forms the core of the Trx system. The mammalian Trx system exerts a wide spectrum of functions including redox regulation, antioxidant defense, regulation of transcription factors as well as support of cell growth and replication. Many of these functions involve the reduction of Trx, which may subsequently reduce a number of different substrates including ribonucleotide reductase, peroxiredoxins or NFkB. […]
This BioAssay is a validation of an NADPH fluorescence-based, dual-purpose qHTS rTrxR1 assay designed to find potential inhibitors and substrates of rTrxR1. […]
Assay protocol: 2 uL of reagents (buffer in column 4 as negative control and 90 nM rTrxR1 in columns 1-3 and 5-48) were dispensed into Greiner black solid-bottom 1,536-well assay plates, followed by 1 uL of NADPH (400 uM final concentration) to each well. […] The plate was immediately transferred to a ViewLux high-throughput CCD imager (PerkinElmer), wherein kinetic measurements of NADPH fluorescence (Ex 340 nm, Em 450 nm) were acquired (8 minute kinetic read, see Table 1). […]
(In qHTS, concentration-response curves come from the screen itself.)
With `CN1[C@@H]2CC[C@H]1CC(OC(=O)C(O)c1ccccc1)C2` (some centres not stated), the activity change, negative = inhibition was inactive: 28.6% [at 114 µM].
Under `CN1C2CCC1CC(OC(=O)C(O)c1ccccc1)C2` (configuration not stated) stands inactive: 53.3% and inactive: -3.55%.
